Values quoted from earlier work as cited in patent US9961896B2, “Cleaning liquid” (priority 2013, dated 2018).
At least one structure is not confirmed: it was looked up by name or label, or the drawing left a doubt.

Settings: cited from earlier work

| Compound | Biofilm | Effective against both pathogens and nuisance microor. anisms | Efficacious in presence of and stable to organic impurities from bathers and environment, high and low water temperature, pH variations differing water qualities and sunlight | Suitable shelf life at storage temperatures for a minimum of 1 year |
| --- | --- | --- | --- | --- |
| BrBr [Bromine] | Partial | Yes | No | No |
| O=[O+][O-] [Ozone] | Partial | Yes | Yes | – |
